From the supplement of paper PMC8728848
The other results are listed elsewhere or left out.

How the values were obtained:
Assay in all cases: glycan array binding signal (z-score within array); higher = stronger binding
Settings in all cases: glycan notation: IUPAC condensed, linker removed
Fuc(a1-2)Gal = target: Fuc(a1-2)Gal
Outline: (§1)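 Glycan array data came from 3228 arrays in the Consortium for Functional Glycomics database, and only arrays with an available protein sequence were kept. Glycan names were put into IUPAC-condensed notation, and columns mapping to the same glycan were averaged. The binding signal is a within-array Z-score, averaged across arrays of one protein sequence run at different concentrations or buffers and across linkers. A negative Z-score can be read as non-binding.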

Fuc(a1-2)Gal(b1-3)GalNAc = target: Fuc(a1-2)Gal(b1-3)GalNAc
Outline: as §1

[1] = target: Fuc(a1-2)Gal(b1-3)GalNAc(a1-3)[Fuc(a1-2)]Gal(b1-4)Glc
Outline: as §1

[2] = target: Fuc(a1-2)Gal(b1-3)GalNAc(a1-3)[Fuc(a1-2)]Gal(b1-4)GlcNAc
Outline: as §1

[3] = target: Fuc(a1-2)Gal(b1-3)GalNAc(b1-3)Gal
Outline: as §1

[4] = target: Fuc(a1-2)Gal(b1-3)GalNAc(b1-3)Gal(a1-4)Gal(b1-4)Glc
Outline: as §1

[5] = target: Fuc(a1-2)Gal(b1-3)GalNAc(b1-4)[Neu5Ac(a2-3)]Gal(b1-4)Glc
Outline: as §1

Fuc(a1-2)Gal(b1-3)GlcNAc = target: Fuc(a1-2)Gal(b1-3)GlcNAc
Outline: as §1

[6] = target: Fuc(a1-2)Gal(b1-3)GlcNAc(b1-2)Man(a1-3)[Fuc(a1-2)Gal(b1-3)GlcNAc(b1-2)Man(a1-6)]Man(b1-4)GlcNAc(b1-4)GlcNAc
Outline: as §1

[7] = target: Fuc(a1-2)Gal(b1-3)GlcNAc(b1-2)Man(a1-3)[Fuc(a1-2)Gal(b1-3)GlcNAc(b1-2)Man(a1-6)]Man(b1-4)GlcNAc(b1-4)[Fuc(a1-6)]GlcNAc
Outline: as §1

[8] = target: Fuc(a1-2)Gal(b1-3)GlcNAc(b1-3)Gal(b1-4)Glc
Outline: as §1

[9] = target: Fuc(a1-2)Gal(b1-3)GlcNAc(b1-3)GalNAc
Outline: as §1

[10] = target: Fuc(a1-2)Gal(b1-3)GlcNAc(b1-3)[Fuc(a1-2)Gal(b1-3)GlcNAc(b1-6)]GalNAc
Outline: as §1

[11] = target: Fuc(a1-2)Gal(b1-3)GlcNAc(b1-3)[Gal(b1-4)GlcNAc(b1-6)]Gal(b1-4)Glc
Outline: as §1

[12] = target: Fuc(a1-2)Gal(b1-3)GlcNAc(b1-3)[Neu5Ac(a2-6)Gal(b1-4)GlcNAc(b1-6)]Gal(b1-4)Glc
Outline: as §1

[13] = target: Fuc(a1-2)Gal(b1-3)GlcNAc6S
Outline: as §1

[14] = target: Fuc(a1-2)Gal(b1-3)[Fuc(a1-4)]GlcNAc
Outline: as §1

[15] = target: Fuc(a1-2)Gal(b1-3)[Fuc(a1-4)]GlcNAc(b1-2)Man(a1-3)[Fuc(a1-2)Gal(b1-3)[Fuc(a1-4)]GlcNAc(b1-2)Man(a1-3)]Man(b1-4)GlcNAc(b1-4)GlcNAc
Outline: as §1

[16] = target: Fuc(a1-2)Gal(b1-3)[Fuc(a1-4)]GlcNAc(b1-2)Man(a1-3)[Fuc(a1-2)Gal(b1-3)[Fuc(a1-4)]GlcNAc(b1-2)Man(a1-6)]Man(b1-4)GlcNAc(b1-4)[Fuc(a1-6)]GlcNAc(b1-4)[Fuc(a1-6)]GlcNAc
Outline: as §1

[17] = target: Fuc(a1-2)Gal(b1-3)[Fuc(a1-4)]GlcNAc(b1-3)[Fuc(a1-3)[Gal(b1-4)]GlcNAc(b1-6)]Gal(b1-4)Glc
Outline: as §1

[18] = target: Fuc(a1-2)Gal(b1-3)[Fuc(a1-4)]GlcNAc(b1-3)[Gal(b1-4)GlcNAc(b1-6)]Gal(b1-4)Glc
Outline: as §1

Fuc(a1-2)Gal(b1-4)Glc = target: Fuc(a1-2)Gal(b1-4)Glc
Outline: as §1

Fuc(a1-2)Gal(b1-4)Glc6S = target: Fuc(a1-2)Gal(b1-4)Glc6S
Outline: as §1

Fuc(a1-2)Gal(b1-4)GlcNAc = target: Fuc(a1-2)Gal(b1-4)GlcNAc
Outline: as §1

[19] = target: Fuc(a1-2)Gal(b1-4)GlcNAc(b1-2)Man
Outline: as §1

[20] = target: Fuc(a1-2)Gal(b1-4)GlcNAc(b1-2)Man(a1-3)[Fuc(a1-2)Gal(b1-4)GlcNAc(b1-2)Man(a1-6)]Man(b1-4)GlcNAc(b1-4)GlcNAc
Outline: as §1

[21] = target: Fuc(a1-2)Gal(b1-4)GlcNAc(b1-2)Man(a1-3)[Fuc(a1-2)Gal(b1-4)GlcNAc(b1-2)Man(a1-6)]Man(b1-4)GlcNAc(b1-4)[Fuc(a1-6)]GlcNAc
Outline: as §1

[22] = target: Fuc(a1-2)Gal(b1-4)GlcNAc(b1-2)[Fuc(a1-2)Gal(b1-4)GlcNAc(b1-4)]Man(a1-3)[Fuc(a1-2)Gal(b1-4)GlcNAc(b1-2)Man(a1-6)]Man(b1-4)GlcNAc(b1-4)GlcNAc
Outline: as §1

[23] = target: Fuc(a1-2)Gal(b1-4)GlcNAc(b1-3)Gal(b1-4)GlcNAc
Outline: as §1

[24] = target: Fuc(a1-2)Gal(b1-4)GlcNAc(b1-3)Gal(b1-4)GlcNAc(b1-2)Man(a1-3)[Fuc(a1-2)Gal(b1-4)GlcNAc(b1-3)Gal(b1-4)GlcNAc(b1-2)Man(a1-6)]Man(b1-4)GlcNAc(b1-4)GlcNAc
Outline: as §1

[25] = target: Fuc(a1-2)Gal(b1-4)GlcNAc(b1-3)Gal(b1-4)GlcNAc(b1-3)Gal(b1-4)GlcNAc
Outline: as §1

[26] = target: Fuc(a1-2)Gal(b1-4)GlcNAc(b1-3)GalNAc
Outline: as §1

[27] = target: Fuc(a1-2)Gal(b1-4)GlcNAc(b1-3)[Fuc(a1-2)Gal(b1-4)GlcNAc(b1-6)]GalNAc
Outline: as §1

[28] = target: Fuc(a1-2)Gal(b1-4)GlcNAc(b1-3)[Fuc(a1-3)[Gal(b1-4)]GlcNAc(b1-6)]Gal(b1-4)Glc
Outline: as §1

[29] = target: Fuc(a1-2)Gal(b1-4)GlcNAc(b1-6)GalNAc
Outline: as §1

[30] = target: Fuc(a1-2)Gal(b1-4)GlcNAc6S
Outline: as §1

[31] = target: Fuc(a1-2)Gal(b1-4)[Fuc(a1-3)]GlcNAc
Outline: as §1

[32] = target: Fuc(a1-2)Gal(b1-4)[Fuc(a1-3)]GlcNAc(b1-2)Man(a1-3)[Fuc(a1-2)Gal(b1-4)[Fuc(a1-3)]GlcNAc(b1-2)Man(a1-6)]Man(b1-4)GlcNAc(b1-4)[Fuc(a1-6)]GlcNAc
Outline: as §1

[33] = target: Fuc(a1-2)Gal(b1-4)[Fuc(a1-3)]GlcNAc(b1-2)[Fuc(a1-2)Gal(b1-4)[Fuc(a1-3)]GlcNAc(b1-4)]Man(a1-3)[Fuc(a1-2)Gal(b1-4)[Fuc(a1-3)]GlcNAc(b1-2)Man(a1-6)]Man(b1-4)GlcNAc(b1-4)GlcNAc
Outline: as §1

[34] = target: Fuc(a1-2)Gal(b1-4)[Fuc(a1-3)]GlcNAc(b1-3)Gal(b1-4)[Fuc(a1-3)]GlcNAc
Outline: as §1

[35] = target: Fuc(a1-2)Gal(b1-4)[Fuc(a1-3)]GlcNAc(b1-3)Gal(b1-4)[Fuc(a1-3)]GlcNAc(b1-3)Gal(b1-4)[Fuc(a1-3)]GlcNAc
Outline: as §1

[36] = target: Fuc(a1-2)Gal(b1-4)[Fuc(a1-3)]GlcNAc(b1-3)GalNAc
Outline: as §1

[37] = target: Fuc(a1-2)Gal(b1-4)[Fuc(a1-3)]GlcNAc(b1-3)[Neu5Ac(a2-6)Gal(b1-4)GlcNAc(b1-6)]Gal(b1-4)Glc
Outline: as §1

[38] = target: Fuc(a1-2)Gal3S(b1-4)GlcNAc
Outline: as §1

[39] = target: Fuc(a1-2)Gal6S(b1-3)GlcNAc
Outline: as §1

B1: MXA PilAct-eGFP (Myxococcus xanthus), Q59589 (protein)
chain: MRVSRFNPRNRGFTLIELMIVVAIIGILAAIAIPNFIKFQARSKQSEAKTNLKALYTAQKSFFSEKDRYSDFANEIGFAPERGNRYGYRVSAAAGDCEVRNAADLPVPAAGVPCISNDSFRFGANSAIDDPTPVVARFVPQGAAGWNTTLGVQPTIADCPNCNFFAGARGNADNEATFDDWVIAGFEGSGQVGPCSEAGNVASGTPYNTRNDVACDGAAQ
glycan array binding signal (z-score) (Fuc(a1-2)Gal): -0.674
glycan array binding signal (z-score) (Fuc(a1-2)Gal(b1-3)GalNAc): 0.064
glycan array binding signal (z-score) [1]: 0.469
glycan array binding signal (z-score) [2]: 0.443
glycan array binding signal (z-score) [3]: -1.19
glycan array binding signal (z-score) [4]: -0.446
glycan array binding signal (z-score) [5]: 0.117
glycan array binding signal (z-score) (Fuc(a1-2)Gal(b1-3)GlcNAc): -0.785
glycan array binding signal (z-score) [6]: -0.621
glycan array binding signal (z-score) [7]: 0.257
glycan array binding signal (z-score) [8]: 0.066
glycan array binding signal (z-score) [9]: -0.348
glycan array binding signal (z-score) [10]: -0.015
glycan array binding signal (z-score) [11]: -0.272
glycan array binding signal (z-score) [12]: -0.4
glycan array binding signal (z-score) [13]: 0.118
glycan array binding signal (z-score) [14]: -0.852
glycan array binding signal (z-score) [15]: 0.331
glycan array binding signal (z-score) [16]: -0.196
glycan array binding signal (z-score) [17]: -0.294
glycan array binding signal (z-score) [18]: -0.394
glycan array binding signal (z-score) (Fuc(a1-2)Gal(b1-4)Glc): 0.596
glycan array binding signal (z-score) (Fuc(a1-2)Gal(b1-4)Glc6S): -0.702
glycan array binding signal (z-score) (Fuc(a1-2)Gal(b1-4)GlcNAc): 0.125
glycan array binding signal (z-score) [19]: -1.78
glycan array binding signal (z-score) [20]: 2.18
glycan array binding signal (z-score) [21]: -0.851
glycan array binding signal (z-score) [22]: 2.42
glycan array binding signal (z-score) [23]: 0.643
glycan array binding signal (z-score) [24]: 0.216
glycan array binding signal (z-score) [25]: 2.63
glycan array binding signal (z-score) [26]: -0.527
glycan array binding signal (z-score) [27]: -0.47
glycan array binding signal (z-score) [28]: 0.299
glycan array binding signal (z-score) [29]: -0.317
glycan array binding signal (z-score) [30]: -0.023
glycan array binding signal (z-score) [31]: 0.23
glycan array binding signal (z-score) [32]: -0.459
glycan array binding signal (z-score) [33]: 0.084
glycan array binding signal (z-score) [34]: 0.603
glycan array binding signal (z-score) [35]: -0.292
glycan array binding signal (z-score) [36]: -0.56
glycan array binding signal (z-score) [37]: 0.678
glycan array binding signal (z-score) [38]: -0.55
glycan array binding signal (z-score) [39]: 0.631
